Source: PubChem BioAssay AID743121 (NCATS, 2013)
The deposit covers about 26,000 reagents; this is an unselected part. Of all reagents, 167 (0.63%) were called active. 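Calls are per gene from RSA p-values that are not deposited; an individual active-marked siRNA can sensitise only weakly.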 The numbers tell different reagents against one gene apart. Further read-outs or replicates are left out here.

- Screen: 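Knock-downs that sensitise breast cancer cells to camptothecin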 (primary screen)
- Cells: MDA-MB-231 cells, a human breast cancer line
- Reagents: single siRNA against human genes, 20 nM siRNA (0.8 pmol per well)
- Timing: 120 h (drug added 48 h after transfection, read 72 h later)
- Treatment: camptothecin 20 nM (about EC30) for 72 h; vehicle 0.1% DMSO in parallel plates
- Measurement: 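Cell viability by ATP luminescence (CellTiter-Glo) as % of non-targeting siRNA wells, and the log2 ratio of viability without drug over viability with camptothecin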
- Direction: log2 vehicle/camptothecin viability: higher = stronger sensitisation to camptothecin
- Active means: 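Each gene scored by redundant siRNA activity (RSA) over its individual siRNA ratios; a gene is called active at p < 0.001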

target gene | reagent no. | log2 vehicle/camptothecin viability | Call
ITGA2 | 1 | -0.109 | inactive
ITGA2 | 2 | -0.342 | inactive
ITGA2 | 3 | -0.528 | inactive
ITGA2 | 4 | -0.0247 | inactive
ABAT | 1 | -0.567 | inactive
ABAT | 2 | -0.00199 | inactive
ABAT | 3 | -0.0847 | inactive
ABAT | 4 | -0.314 | inactive
VEGFC | 1 | 0.607 | inactive
VEGFC | 2 | -0.0117 | inactive
VEGFC | 3 | 0.489 | inactive
HAGH | 1 | 0.294 | inactive
HAGH | 2 | -0.342 | inactive
HAGH | 3 | -0.436 | inactive
HAGH | 4 | -0.307 | inactive
CGB3 | 1 | -0.226 | inactive
CGB3 | 2 | -0.0377 | inactive
CGB3 | 3 | 0.0312 | inactive
CGB3 | 4 | -0.201 | inactive
CGB3 | 5 | -0.321 | inactive
OR2S2 | 1 | -0.0773 | inactive
OR2S2 | 2 | -0.00502 | inactive
OR2S2 | 3 | -0.29 | inactive
OR2S2 | 4 | -0.143 | inactive
PDGFRL | 1 | -0.51 | inactive
PDGFRL | 2 | -0.257 | inactive
PDGFRL | 3 | 0.222 | inactive
PDGFRL | 4 | 0.727 | inactive
FOLH1 | 1 | 0.0552 | inactive
FOLH1 | 2 | -0.0811 | inactive
FOLH1 | 3 | -0.095 | inactive
FOLH1 | 4 | -0.114 | inactive

Already shown: an excerpt of the list.
target gene | reagent no. | log2 vehicle/camptothecin viability | Call
ITGA2 | 3 | -0.528 | inactive
ITGA2 | 4 | -0.0247 | inactive
ABAT | 1 | -0.567 | inactive
ABAT | 2 | -0.00199 | inactive
ABAT | 3 | -0.0847 | inactive

The results go on.
target gene | reagent no. | log2 vehicle/camptothecin viability | Call
BRCA1 | 1 | 0.321 | active
BRCA1 | 2 | 0.0924 | active
BRCA1 | 3 | 0.358 | active
BRCA1 | 4 | -0.223 | active
BRCA1 | 5 | 0.0756 | active
BRCA1 | 6 | 0.639 | active
BRCA1 | 7 | 0.468 | active
BRCA1 | 8 | 0.466 | active
NLGN2 | 1 | 0.762 | inactive
NLGN2 | 2 | 0.117 | inactive
NLGN2 | 3 | 0.00648 | inactive
NLGN2 | 4 | -0.0807 | inactive
PPP2R5E | 1 | -0.195 | inactive
PPP2R5E | 2 | -0.244 | inactive
PPP2R5E | 3 | -0.0204 | inactive
PPP2R5E | 4 | -0.302 | inactive
